Reference: PubChem BioAssay AID504444 (National Center for Advancing Translational Sciences (NCATS), 2011)
Out of some 360,000 compounds screened, about 7,500 (2.1%) were called active. The shares of active, inactive and inconclusive entries below differ from those in the screen. Calls come from the whole dose curve; as a rule, active = well fitted inhibition curve with a large enough effect; inconclusive = small, poorly fitted or top-dose-only effect, or effect the other way; inactive = flat fitted curve, though single readings scatter. Potencies beside an inconclusive call are fits to weak or partial responses and may not hold up.

test: Nrf2 qHTS screen for inhibitors; details: A549 ARE-Fluc reporter, luciferase luminescence, 18-24 h; activity change, negative = inhibition: at 46 µM (top of the series); note: nearly all actives have a fitted effect of over 60% in size
In short: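 In this cell-based qHTS, ARE-driven firefly luciferase in A549 cells reports Nrf2 activity; the luminescent signal after BugLite lysis is the measured value, with a prior CellTiter-Fluor read for cell health.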
% is set by controls: 0 for no effect and ±100 for the full control effect; potency is the fitted concentration of half-maximal effect.

| SMILES | Potency | activity change, negative = inhibition |
| --- | --- | --- |
| Cn1c(=O)c2[nH]c(Cc3cccc4ccccc34)nc2n(C)c1=O | active: 20.6 µM | – |
| CCCc1nc2oc3c(NCC(C)O)ncnc3c2c2c1CCCC2 (configuration not stated) | – | inactive: -8.5% |
| O=C(NC1CC2CCC(C1)N2Cc1nnnn1Cc1ccco1)NC12CC3CC(CC(C3)C1)C2 (configuration not stated) | active: 4.11 µM | – |
| Cc1ccc(-n2ncc3ccccc3c2=O)cc1Cl | inconclusive: 8.2 µM [activator, partial curve] | – |
| CC(C)(C)c1ccc(C(=O)NCC(=O)N2CCCC2)cc1 | inconclusive: 14.6 µM [activator, partial curve, poor fit] | – |
| O=C(NNCc1ccccc1)c1ccccn1 | inconclusive: 1.46 µM [activator, full curve, poor fit] | – |
| Cc1nc(-c2ccccc2)nc2[nH]c(-c3ccccc3)cc(=O)c12 | inconclusive: 20.6 µM [falling, partial curve, poor fit] | – |
| Cn1c(=O)oc2cc(S(=O)(=O)N3CCCC(C(=O)NC4CCCc5ccccc54)C3)ccc21 (configuration not stated) | – | inactive: -3.64% |
| O=C(NC(=S)NNS(=O)(=O)c1ccc(Cl)cc1)c1cccnc1 | – | inactive: -23.3% |
| Cc1ccc(NC(=O)C(=O)NCCN2CCN(S(C)(=O)=O)CC2)cc1 | inconclusive: 29.1 µM [falling, partial curve, poor fit] | – |
| Cc1cc(C(=O)C(C(c2ccccc2)N2CCOCC2)N2CCOCC2)ccc1Cl (configuration not stated) | – | inactive: 0.787% |
| Cc1cc(C(=O)N2CCN(C/C=C/c3ccccc3)CC2)cs1 | – | inactive: 0.573% |
| CCOc1ccc(N(CC)S(=O)(=O)N2CCCC(C(=O)Nc3ccc(C(C)=O)cc3)C2)cc1 (configuration not stated) | inconclusive: 23.1 µM [falling, single point] | – |
| CC1CC(C)CN(C(=O)c2ccc(C(=O)c3ccccc3)cc2)C1 (configuration not stated) | inconclusive: 0.0291 µM [falling, full curve, poor fit] | – |
| N#Cc1c(N)nc(SCc2ccncc2)c(C#N)c1-c1cccs1 | active: 23.1 µM | – |
| CC(C)(C)C1CCC(=O)N(CCSc2ccccc2)CC1 (configuration not stated) | inconclusive: 9.2 µM [activator, partial curve] | – |
| Cc1cc(C)n2nc(CC#N)c(C#N)c2n1 | inconclusive: 18.4 µM [activator, partial curve, poor fit] | – |
| CCOC(=O)c1ccc(N2C(=O)c3[nH]nc(-c4ccccc4)c3C2c2ccc(CC)cc2)cc1 (configuration not stated) | active: 18.4 µM | – |
| CCNC(=O)NC(=O)CSc1nnc(-c2c[nH]c3ccccc23)o1 | inconclusive: 23.1 µM [falling, partial curve, poor fit] | – |
| Nc1cc(-c2ccco2)no1 | inconclusive: 18.4 µM [activator, single point] | – |
| CC1CCCCC1N=CC1=C(O)CC(C)(C)CC1=O (configuration not stated) | inconclusive: 11.6 µM [activator, partial curve, poor fit] | – |
| CCN(CC)c1ccc(NS(=O)(=O)c2ccc3c(c2)oc(=O)n3C)c(C)c1 | inconclusive: 0.206 µM [falling, full curve, poor fit] | – |
| NS(=O)(=O)c1cc(C(=O)NNC(=O)c2ccc3c(c2)OCO3)ccc1Cl | inconclusive: 16.4 µM [activator, single point] | – |

| SMILES | Potency | activity change, negative = inhibition |
| --- | --- | --- |
| CCOc1ccccc1C(=O)N(Cc1ccco1)Cc1ccco1 | – | inactive: 3.41% |
| Cc1ccc2oc(C(=O)NCCCN3CCOCC3)c(C)c2c1 | inconclusive: 1.84 µM [activator, full curve] | – |
| S=c1[nH]c(-c2cccs2)cn1-c1ccccc1 | inconclusive: 9.2 µM [activator, single point] | – |
| O=C(Cn1c(=O)n(Cc2nc(-c3ccccc3)no2)c(=O)c2ccccc21)Nc1cccc(C(F)(F)F)c1 | active: 16.4 µM | – |
| COc1ccc(-c2cc(C(=O)Nc3c(C(=O)c4ccc(C)cc4)oc4ccccc34)no2)cc1 | – | inactive: -7.66% |
| COc1ccc(Nc2nnc(SCc3cc(=O)n4ccsc4n3)s2)cc1 | inconclusive: 6.51 µM [activator, single point] | – |
| C/C(=N\NC(=O)c1ccc(Br)cc1)C1C(=O)c2ccccc2C1=O | inconclusive: 29.1 µM [falling, single point] | – |
| Cc1noc(C)c1CSCC(=O)N(C)CC(=O)Nc1ccc(F)cc1 | inconclusive: 32.6 µM [falling, single point] | – |
| COC(=O)c1ccc(NC(=O)c2ccc3nccnc3c2)cc1 | – | inactive: 14.4% |
| COc1ccccc1N1CCN(c2nc3c(C)cccn3c(=O)c2C=O)CC1 | inconclusive: 23.1 µM [falling, single point] | – |
| O=C(CCN1C(=O)/C(=C\C=C\c2ccccc2)SC1=S)Nc1ccccc1C(=O)O | inconclusive: 23.1 µM [activator, single point] | – |
| O=[N+]([O-])c1ccccc1NCCNc1ncc(C(F)(F)F)cc1Cl | inconclusive: 23.1 µM [activator, single point] | – |
| CSc1ccc(C(=O)C2CCCN(C(=O)c3cc4cc(F)ccc4[nH]3)C2)cc1 (configuration not stated) | inconclusive: 3.66 µM [activator, single point] | – |
| Cc1c(NC(=O)/C(C#N)=C/c2ccc(-c3ccc(Cl)c(Cl)c3)o2)c(=O)n(-c2ccccc2)n1C | inconclusive: 29.1 µM [falling, single point] | – |
| N#Cc1nc(N2CCCCC2)nc(N2CCCCC2)n1 | active: 2.06 µM | – |
| Cc1cccc2c3nc4ccccc4nc3n(C)c12 | inconclusive: 4.11 µM [activator, full curve] | – |
| Cc1cccc(-n2c(SCC(=O)Nc3ncc(Cl)cc3Cl)nc3ccccc32)c1 | inconclusive: 1.3 µM [activator, partial curve] | – |
| COC(=O)c1ccc(N2CCCCC2)c(NS(=O)(=O)c2ccc(C)cc2)c1 | inconclusive: 29.1 µM [falling, single point] | – |
| O=C(Nc1nnc(C2CC2)o1)c1ccc(S(=O)(=O)N2CCCc3ccccc32)cc1 | active: 10.3 µM | – |
| CCCC(=O)Nc1ccc(NC(=O)c2ccco2)cn1 | inconclusive: 9.2 µM [activator, partial curve, poor fit] | – |
| CCN(c1ccccc1)S(=O)(=O)c1ccc(NC(=O)c2nc(SC)ncc2Cl)cc1 | inconclusive: 10.3 µM [falling, partial curve] | – |
| Clc1ccc(-c2nnc(N3CCOCC3)o2)cc1 | inconclusive: 23.1 µM [activator, partial curve, poor fit] | – |
| O=C(NC(NC(=S)Nc1ccccc1)C(Cl)(Cl)Cl)c1cccc(Cl)c1 (configuration not stated) | inconclusive: 18.4 µM [falling, single point] | – |

| SMILES | Potency | activity change, negative = inhibition |
| --- | --- | --- |
| Cc1cc(C)n(C(C)CC(=O)Nc2cccc(C(F)(F)F)c2)n1 (configuration not stated) | inconclusive: 23.1 µM [falling, partial curve, poor fit] | – |
| Cc1cc(C(=O)COc2cccnc2[N+](=O)[O-])c(C)n1-c1ccccc1F | inconclusive: 2.59 µM [falling, partial curve, poor fit] | – |
| CCN(CC)c1ccc(NC(=O)C2CCN(c3nnc(-n4cccc4)s3)CC2)c(C)c1 | – | inactive: -2.29% |
| Cc1ccc2nsnc2c1S(=O)(=O)N(Cc1ccco1)Cc1cc2cccc(C)c2[nH]c1=O | inconclusive: 6.51 µM [falling, single point] | – |
| CC1=C(c2ccc(Cl)cc2)S(=O)(=O)NC1=NCCCN1CCN(c2cc(C)ccc2C)CC1 | inconclusive: 23.1 µM [falling, single point] | – |
| O=C(c1[nH]ncc1-c1ccccc1)C1CO1 (configuration not stated) | – | inactive: -9.77% |
| CCC(CC)C(=O)OCc1cc(=O)n2nc(C3CC3)sc2n1 | inconclusive: 1.03 µM [activator, full curve, poor fit] | – |
| CCN(Cc1nc2ccccc2c(=O)[nH]1)C(=O)c1cccc(OCc2c(C)noc2C)c1 | inconclusive: 29.1 µM [falling, single point] | – |
| O=C(OCc1nnc(-c2ccccc2)o1)c1ccccc1 | inconclusive: 0.103 µM [falling, full curve, poor fit] | – |
| Cc1cccc(N/N=C/c2ccc(C)s2)c1 | inconclusive: 25.9 µM [activator, partial curve, poor fit] | – |
| Nc1cccnc1Sc1cc(Cl)cc(Cl)c1 | inconclusive: 7.31 µM [falling, partial curve] | – |
| Cc1ccc(/C=C2\SC(=S)N(Cc3ccccc3)C2=O)o1 | – | inactive: 22.3% |
| O=C(C[n+]1ccc(-c2cc(C(=O)Nc3cccc(C(F)(F)F)c3)c3ccccc3n2)cc1)c1cccc([N+](=O)[O-])c1 | inconclusive: 3.26 µM [falling, single point] | – |
| Cc1cnc(NC(=O)CCNC(=O)c2ccccc2Cl)s1 | inconclusive: 29.1 µM [activator, single point] | – |
| COc1ccc(NC(=O)CN(C)C(=O)c2sc3ccccc3c2Cl)cc1 | inconclusive: 23.1 µM [falling, partial curve, poor fit] | – |
| Cc1ccccc1Oc1ccc2c(c1)[C@@H]1C[C@H]3[C@@H](C(=O)N1CC2)[C@H](C)ON3C | inconclusive: 18.4 µM [falling, partial curve] | – |
| N#CCC(=O)N1CCN(Cc2ccc3c(c2)OCO3)CC1 | – | inactive: 17.4% |
| Cn1nccc1C(=O)NC1CCCc2c1cnn2-c1ccc(F)cc1F (configuration not stated) | active: 0.184 µM | – |
| O=C(/C(=C/c1ccc(Cl)cc1)c1nc2ccccc2[nH]1)c1ccccc1 | inconclusive: 29.1 µM [falling, single point] | – |
| O=C(CNc1cccc(S(=O)(=O)N2CCCC2)c1)Nc1cccc(C(F)(F)F)c1 | inconclusive: 16.4 µM [falling, single point] | – |
| COc1ccc(-c2nc(SCC(=O)NC3CCCC3)c(-c3ccc(F)cc3)[nH]2)cc1 | active: 16.4 µM | – |

A draw from above in order of formula weight, falling.

| SMILES | Potency | activity change, negative = inhibition |
| --- | --- | --- |
| O=C(C[n+]1ccc(-c2cc(C(=O)Nc3cccc(C(F)(F)F)c3)c3ccccc3n2)cc1)c1cccc([N+](=O)[O-])c1 | inconclusive: 3.26 µM [falling, single point] | – |
| CC1=C(c2ccc(Cl)cc2)S(=O)(=O)NC1=NCCCN1CCN(c2cc(C)ccc2C)CC1 | inconclusive: 23.1 µM [falling, single point] | – |
| Cc1ccc2nsnc2c1S(=O)(=O)N(Cc1ccco1)Cc1cc2cccc(C)c2[nH]c1=O | inconclusive: 6.51 µM [falling, single point] | – |
| CCN(CC)c1ccc(NC(=O)C2CCN(c3nnc(-n4cccc4)s3)CC2)c(C)c1 | – | inactive: -2.29% |
| CCN(Cc1nc2ccccc2c(=O)[nH]1)C(=O)c1cccc(OCc2c(C)noc2C)c1 | inconclusive: 29.1 µM [falling, single point] | – |
| O=C(CNc1cccc(S(=O)(=O)N2CCCC2)c1)Nc1cccc(C(F)(F)F)c1 | inconclusive: 16.4 µM [falling, single point] | – |
| COc1ccc(NC(=O)CN(C)C(=O)c2sc3ccccc3c2Cl)cc1 | inconclusive: 23.1 µM [falling, partial curve, poor fit] | – |
| Cc1ccccc1Oc1ccc2c(c1)[C@@H]1C[C@H]3[C@@H](C(=O)N1CC2)[C@H](C)ON3C | inconclusive: 18.4 µM [falling, partial curve] | – |
| Cn1nccc1C(=O)NC1CCCc2c1cnn2-c1ccc(F)cc1F (configuration not stated) | active: 0.184 µM | – |
| Cc1cc(C)n(C(C)CC(=O)Nc2cccc(C(F)(F)F)c2)n1 (configuration not stated) | inconclusive: 23.1 µM [falling, partial curve, poor fit] | – |
| Cc1cnc(NC(=O)CCNC(=O)c2ccccc2Cl)s1 | inconclusive: 29.1 µM [activator, single point] | – |
| CCC(CC)C(=O)OCc1cc(=O)n2nc(C3CC3)sc2n1 | inconclusive: 1.03 µM [activator, full curve, poor fit] | – |
| O=C(OCc1nnc(-c2ccccc2)o1)c1ccccc1 | inconclusive: 0.103 µM [falling, full curve, poor fit] | – |
| Nc1cccnc1Sc1cc(Cl)cc(Cl)c1 | inconclusive: 7.31 µM [falling, partial curve] | – |
| Cc1cccc(N/N=C/c2ccc(C)s2)c1 | inconclusive: 25.9 µM [activator, partial curve, poor fit] | – |
